These are yes or no findings as the source states them, for the method shown.

Chains of the proteins cited; added tags and fusions are not shown. Residues count along the entry.
UniProt Q01638, residues 19-328: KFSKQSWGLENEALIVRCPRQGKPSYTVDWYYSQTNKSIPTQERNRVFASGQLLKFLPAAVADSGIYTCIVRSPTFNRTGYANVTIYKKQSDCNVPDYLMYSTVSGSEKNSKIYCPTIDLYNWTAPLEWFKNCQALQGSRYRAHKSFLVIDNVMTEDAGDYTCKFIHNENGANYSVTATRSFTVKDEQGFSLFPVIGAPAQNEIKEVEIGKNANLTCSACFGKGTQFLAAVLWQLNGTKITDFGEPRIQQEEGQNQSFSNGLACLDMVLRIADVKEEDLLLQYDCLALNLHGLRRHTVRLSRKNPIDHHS

The assay deals with Human ST2-Flag-His (recombinant IL-33R, extracellular domain) (human) (UniProt Q01638). As to the kind of experiment: SPR; Biacore T200, CM5 chip; human ST2-Flag-His captured by amine-coupled penta-His antibody; IL-33 variants injected at 200 nM (180 s association, 300 s dissociation); 25°C, HBS-P (10 mM HEPES pH 7.4, 150 mM NaCl, 0.05% P20); single replicate; both purified.

B1: IL-33 (95-204), truncated mutant (rs146597587-C-associated form) (domain or fragment, UniProt O95760-1 95-204)
chain: AFGISGVQKYTRALHDSSITGISPITEYLASLSTYNDQSITFALEDESYEIYVEDLKKDEKKDKVLLSYYESQHPSNESGDGVDGKMLMVTLSPTKDFWLHANNKEHSVE
Take B1: the binding entry is “no binding (tested: 200 nM)”.

The record behind these values is PMC5362243, “A rare IL33 loss-of-function mutation reduces blood eosinophil counts and protects from asthma” (PLoS Genetics, 2017).
